From US4492698A, “Diphenylbutyl-1-acylpiperazines” (priority 1980, dated 1985)

Key:
[1] = tested on: male NMRI mice; experiment: isolation-induced aggressive behaviour; type: in vivo; conditions: Mus musculus, sc, 0.5 h, read-out: ED50 (dose inhibiting aggressive behaviour among 50 percent of the pairs)
From the text: Male mice subjected to prolonged isolation develop aggressive behaviour against each other when paired (Yen, C. Y. et al., Arch. Int. Pharmacodyn. 123, 179, (1959); Valzelli, L., Adv. Pharmacol. 5, 79 (1967)). […] The clinical correlation of this test indicates tranquillizing and anxiolytic activities as well as antiaggressive properties as such (Duncan, R. L. et al., J. Med. Chem. 13, 1 (1970)).
This type of aggression is interesting because it is known that this kind of emotional behaviour might be located in limbic structures in the brain (MacLean, P. D., Psychosom. Med. 11, 338 (1949)).
Every week male NMRI mice, weighing 20-22 g, were isolated in Makrolon cages for three weeks with diet and water ad libitum. A piece of cardboard was placed between the cages to prevent visual contact.
To test aggressiveness the mice were paired in a neutral area, a beaker (14 cm high and diameter 14 cm). A pair is considered aggressive if both the animals show clear signs of fighting within 5 min. This fighting is characterized by biting and vocalization. As soon as fighting is seen, the mice are separated and brought to their home cage. […] Animals showing no aggression are discarded. […] The test substance is administered s.c. (0.2-0.4 ml/20 g). The mice are paired 0.5 h after the injection for trials of 5 min. duration. […]

[2] = tested on: mice (NMRI); experiment: writhing test (acetic acid), analgetic properties; type: in vivo; conditions: Mus musculus, sc, read-out: ED50 (dose blocking the writhing behaviour in 50% of the animals)
Method: The writhing test is a frequently used test of analgetic properties (Witkin, L. B. et al., J. Pharmacol. Exp. Ther. 133, 400 (1961)). If acetic acid (0.5%, 15 ml/kg) is injected intraperitoneally in mice (NMRI) they will without exception develop a writhing behaviour characterized by stretching their hind legs. The drugs to be tested were administered subcutaneously to 6 female mice at each dose 20 min. before the injection of the acetic acid. After 10 min. The behaviour of the mice was studied in 5 min. The ED50 value is the dose blocking the writhing behaviour in 50% of the animals during the 5 min. study period.

Row | Structure (SMILES) | ED50 [1] [mg/kg] | ED50 [2] [mg/kg]
1 | CN1C(=O)CN=C(c2ccccc2)c2cc(Cl)ccc21 [Diazepam] | 6.7 | –
2 | CN1CC[C@]23c4c5ccc(O)c4O[C@H]2[C@@H](O)C=C[C@H]3[C@H]1C5 [Morphine] | – | 1.6
